{"sequences": {"note": "Protein sequences, listed by entry. Tags and fused reporters are not part of them.", "UniProt P59941": "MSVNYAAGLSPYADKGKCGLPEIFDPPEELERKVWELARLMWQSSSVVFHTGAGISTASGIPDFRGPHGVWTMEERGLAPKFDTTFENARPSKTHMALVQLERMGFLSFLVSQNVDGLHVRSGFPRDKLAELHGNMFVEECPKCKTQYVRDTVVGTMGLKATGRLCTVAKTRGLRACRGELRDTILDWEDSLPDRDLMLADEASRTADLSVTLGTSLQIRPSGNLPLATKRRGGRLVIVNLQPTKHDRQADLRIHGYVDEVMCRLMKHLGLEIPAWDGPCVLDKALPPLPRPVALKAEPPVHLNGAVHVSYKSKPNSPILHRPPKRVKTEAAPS"}, "source": "paper PMC10444762", "binders": {"B1": {"name": "Liver kinase B1 (LKB1), endogenous in mouse vascular smooth muscle cells (enzyme, UniProt Q9WTK7 1-436)", "chain": "MDVADPEPLGLFSEGELMSVGMDTFIHRIDSTEVIYQPRRKRAKLIGKYLMGDLLGEGSYGKVKEVLDSETLCRRAVKILKKKKLRRIPNGEANVKKEIQLLRRLRHRNVIQLVDVLYNEEKQKMYMVMEYCVCGMQEMLDSVPEKRFPVCQAHGYFRQLIDGLEYLHSQGIVHKDIKPGNLLLTTNGTLKISDLGVAEALHPFAVDDTCRTSQGSPAFQPPEIANGLDTFSGFKVDIWSAGVTLYNITTGLYPFEGDNIYKLFENIGRGDFTIPCDCGPPLSDLLRGMLEYEPAKRFSIRQIRQHSWFRKKHPLAEALVPIPPSPDTKDRWRSMTVVPYLEDLHGRAEEEEEEDLFDIEDGIIYTQDFTVPGQVLEEEVGQNGQSHSLPKAVCVNGTEPQLSSKVKPEGRPGTANPARKVCSSNKIRRLSACKQQ"}, "B2": {"name": "Flag-tagged LKB1 (enzyme, UniProt Q9WTK7 1-436)", "chain": "B1 chain"}, "B3": {"name": "His-LKB1 (enzyme, UniProt Q9WTK7 1-436)", "chain": "B1 chain"}}, "key": {"[1]": {"target": "Sirtuin 6 (SIRT6), endogenous in mouse vascular smooth muscle cells (mouse (endogenous in VSMCs from mouse aortas)) (UniProt P59941)", "test": "co-IP; VSMC lysates (IP lysis buffer) immunoprecipitated with anti-SIRT6 or IgG at 4 °C overnight, protein A/G magnetic beads; western blot with anti-LKB1 and anti-SIRT6"}, "[2]": {"target": "HA-tagged SIRT6 (UniProt P59941)", "test": "co-IP; HEK 293T cells transfected with Flag-tagged LKB1 and HA-tagged SIRT6; lysates immunoprecipitated with IgG and anti-Flag or anti-HA at 4 °C overnight, protein A/G magnetic beads; western blot with anti-HA and anti-Flag"}, "[3]": {"target": "GST-SIRT6 (UniProt P59941)", "test": "pull-down; GST or GST-SIRT6 (1 μg)-conjugated GSH beads in NETN buffer (20 mM Tris-HCl pH 8.0, 100 mM NaCl, 1 mM EDTA, 0.5% NP40); purified His-LKB1 (1 μg) added, overnight at 4 °C, three washes; western blot with anti-His and anti-GST; both purified"}}, "note": "These are yes or no findings as the source states them, for the method shown. For part of these data: Binding seen in cells or lysates may run through a third protein. Some binding calls cover weakened binding; strength is not graded here. For part of these data: Sequences can lack the tags named with a protein.", "data": [{"binder": "B1", "values": [{"measurement": "binding", "setting": "[1]", "result": "binds"}]}, {"binder": "B2", "values": [{"measurement": "binding", "setting": "[2]", "result": "binds"}]}, {"binder": "B3", "values": [{"measurement": "binding", "setting": "[3]", "result": "binds"}]}]}
